# Measured values: the supplement of paper PMC11732987, “Enantioselective OTUD7B fragment discovery through chemoproteomics screening and high-throughput optimisation” (Communications Chemistry, 2025)
# Chains of the proteins cited; added tags and fusions are not shown. Lines headed by an entry give the natural chain unless they say otherwise; changes in a name come on top. Chains listed by the source or under a name are the forms on record and can include a tag or linker. Residues count along the entry.
# UniProt Q6P9B9, 2-36: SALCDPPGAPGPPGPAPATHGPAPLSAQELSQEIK
# UniProt Q8N201, 1815-1834: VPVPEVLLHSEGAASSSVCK
# UniProt Q8N201, whole entry, looked up: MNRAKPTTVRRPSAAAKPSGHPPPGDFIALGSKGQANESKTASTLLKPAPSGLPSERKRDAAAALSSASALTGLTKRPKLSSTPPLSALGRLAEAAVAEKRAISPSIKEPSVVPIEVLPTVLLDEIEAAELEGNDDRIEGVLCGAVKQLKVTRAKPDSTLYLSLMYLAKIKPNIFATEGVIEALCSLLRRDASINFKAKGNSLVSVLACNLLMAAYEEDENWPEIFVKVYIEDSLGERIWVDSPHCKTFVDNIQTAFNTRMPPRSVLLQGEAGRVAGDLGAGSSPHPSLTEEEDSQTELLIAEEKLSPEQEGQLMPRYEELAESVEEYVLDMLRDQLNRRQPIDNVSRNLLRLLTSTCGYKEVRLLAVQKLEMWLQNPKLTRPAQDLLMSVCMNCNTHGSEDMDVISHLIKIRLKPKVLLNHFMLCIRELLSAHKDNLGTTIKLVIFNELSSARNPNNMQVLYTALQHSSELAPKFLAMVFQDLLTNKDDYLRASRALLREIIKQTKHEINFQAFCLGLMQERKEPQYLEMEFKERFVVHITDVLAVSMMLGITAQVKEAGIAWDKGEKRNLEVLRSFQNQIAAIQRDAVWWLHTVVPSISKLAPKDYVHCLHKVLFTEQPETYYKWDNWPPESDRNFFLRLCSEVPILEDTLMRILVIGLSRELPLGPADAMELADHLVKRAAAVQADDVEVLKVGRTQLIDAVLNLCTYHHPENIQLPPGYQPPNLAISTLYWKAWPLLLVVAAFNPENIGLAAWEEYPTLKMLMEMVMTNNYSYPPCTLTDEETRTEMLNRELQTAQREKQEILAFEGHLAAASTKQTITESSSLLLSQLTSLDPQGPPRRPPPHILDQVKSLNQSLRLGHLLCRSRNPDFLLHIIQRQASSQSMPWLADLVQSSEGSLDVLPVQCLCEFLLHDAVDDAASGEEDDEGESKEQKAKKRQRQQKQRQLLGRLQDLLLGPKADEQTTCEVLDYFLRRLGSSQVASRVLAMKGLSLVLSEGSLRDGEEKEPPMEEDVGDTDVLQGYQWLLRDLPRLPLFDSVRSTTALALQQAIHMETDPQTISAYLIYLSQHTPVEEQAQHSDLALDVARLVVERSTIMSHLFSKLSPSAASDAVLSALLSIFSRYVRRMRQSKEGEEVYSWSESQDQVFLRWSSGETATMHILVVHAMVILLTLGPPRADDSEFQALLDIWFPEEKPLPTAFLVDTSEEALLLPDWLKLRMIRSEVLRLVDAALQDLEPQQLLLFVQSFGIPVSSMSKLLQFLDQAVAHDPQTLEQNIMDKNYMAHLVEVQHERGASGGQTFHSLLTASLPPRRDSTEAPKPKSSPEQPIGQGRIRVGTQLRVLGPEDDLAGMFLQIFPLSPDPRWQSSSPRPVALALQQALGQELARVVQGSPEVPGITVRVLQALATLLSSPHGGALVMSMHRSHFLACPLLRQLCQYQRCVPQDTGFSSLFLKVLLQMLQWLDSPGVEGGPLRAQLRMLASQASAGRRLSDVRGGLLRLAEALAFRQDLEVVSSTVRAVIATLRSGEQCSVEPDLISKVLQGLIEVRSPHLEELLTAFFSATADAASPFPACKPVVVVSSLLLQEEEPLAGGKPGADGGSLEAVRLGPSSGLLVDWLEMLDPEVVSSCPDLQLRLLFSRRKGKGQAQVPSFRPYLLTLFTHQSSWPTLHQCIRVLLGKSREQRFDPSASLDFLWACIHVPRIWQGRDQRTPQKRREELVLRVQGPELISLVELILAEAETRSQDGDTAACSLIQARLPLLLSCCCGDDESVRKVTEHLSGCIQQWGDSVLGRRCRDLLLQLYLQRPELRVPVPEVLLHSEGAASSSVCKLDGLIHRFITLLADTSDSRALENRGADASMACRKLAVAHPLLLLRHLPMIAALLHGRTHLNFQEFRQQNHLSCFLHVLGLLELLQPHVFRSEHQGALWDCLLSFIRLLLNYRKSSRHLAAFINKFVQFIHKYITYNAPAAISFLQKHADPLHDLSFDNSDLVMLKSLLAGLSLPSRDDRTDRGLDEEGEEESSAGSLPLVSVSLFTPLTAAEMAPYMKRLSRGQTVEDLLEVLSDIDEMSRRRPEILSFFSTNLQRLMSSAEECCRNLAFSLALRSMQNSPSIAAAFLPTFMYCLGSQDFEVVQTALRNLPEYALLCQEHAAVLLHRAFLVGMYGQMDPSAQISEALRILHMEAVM
# UniProt Q9NVR2: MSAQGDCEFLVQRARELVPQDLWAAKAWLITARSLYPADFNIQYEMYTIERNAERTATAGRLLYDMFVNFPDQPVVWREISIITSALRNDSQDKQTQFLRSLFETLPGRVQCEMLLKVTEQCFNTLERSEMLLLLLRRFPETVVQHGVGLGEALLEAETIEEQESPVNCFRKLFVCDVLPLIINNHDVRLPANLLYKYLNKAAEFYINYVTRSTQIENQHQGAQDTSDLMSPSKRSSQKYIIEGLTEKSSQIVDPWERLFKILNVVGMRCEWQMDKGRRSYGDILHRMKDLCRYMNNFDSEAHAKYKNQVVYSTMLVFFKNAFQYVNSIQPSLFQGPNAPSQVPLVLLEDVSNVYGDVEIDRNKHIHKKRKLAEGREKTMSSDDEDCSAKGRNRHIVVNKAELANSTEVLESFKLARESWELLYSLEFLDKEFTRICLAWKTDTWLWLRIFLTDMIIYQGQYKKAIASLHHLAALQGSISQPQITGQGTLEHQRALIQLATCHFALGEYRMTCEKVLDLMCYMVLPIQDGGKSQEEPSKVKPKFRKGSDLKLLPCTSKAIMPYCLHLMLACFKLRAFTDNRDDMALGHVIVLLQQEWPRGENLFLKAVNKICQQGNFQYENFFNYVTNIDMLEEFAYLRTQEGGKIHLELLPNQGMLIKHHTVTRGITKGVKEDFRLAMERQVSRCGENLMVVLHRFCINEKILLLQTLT
# UniProt Q9NV88, 463-485: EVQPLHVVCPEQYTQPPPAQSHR
# UniProt P42858, whole entry, looked up: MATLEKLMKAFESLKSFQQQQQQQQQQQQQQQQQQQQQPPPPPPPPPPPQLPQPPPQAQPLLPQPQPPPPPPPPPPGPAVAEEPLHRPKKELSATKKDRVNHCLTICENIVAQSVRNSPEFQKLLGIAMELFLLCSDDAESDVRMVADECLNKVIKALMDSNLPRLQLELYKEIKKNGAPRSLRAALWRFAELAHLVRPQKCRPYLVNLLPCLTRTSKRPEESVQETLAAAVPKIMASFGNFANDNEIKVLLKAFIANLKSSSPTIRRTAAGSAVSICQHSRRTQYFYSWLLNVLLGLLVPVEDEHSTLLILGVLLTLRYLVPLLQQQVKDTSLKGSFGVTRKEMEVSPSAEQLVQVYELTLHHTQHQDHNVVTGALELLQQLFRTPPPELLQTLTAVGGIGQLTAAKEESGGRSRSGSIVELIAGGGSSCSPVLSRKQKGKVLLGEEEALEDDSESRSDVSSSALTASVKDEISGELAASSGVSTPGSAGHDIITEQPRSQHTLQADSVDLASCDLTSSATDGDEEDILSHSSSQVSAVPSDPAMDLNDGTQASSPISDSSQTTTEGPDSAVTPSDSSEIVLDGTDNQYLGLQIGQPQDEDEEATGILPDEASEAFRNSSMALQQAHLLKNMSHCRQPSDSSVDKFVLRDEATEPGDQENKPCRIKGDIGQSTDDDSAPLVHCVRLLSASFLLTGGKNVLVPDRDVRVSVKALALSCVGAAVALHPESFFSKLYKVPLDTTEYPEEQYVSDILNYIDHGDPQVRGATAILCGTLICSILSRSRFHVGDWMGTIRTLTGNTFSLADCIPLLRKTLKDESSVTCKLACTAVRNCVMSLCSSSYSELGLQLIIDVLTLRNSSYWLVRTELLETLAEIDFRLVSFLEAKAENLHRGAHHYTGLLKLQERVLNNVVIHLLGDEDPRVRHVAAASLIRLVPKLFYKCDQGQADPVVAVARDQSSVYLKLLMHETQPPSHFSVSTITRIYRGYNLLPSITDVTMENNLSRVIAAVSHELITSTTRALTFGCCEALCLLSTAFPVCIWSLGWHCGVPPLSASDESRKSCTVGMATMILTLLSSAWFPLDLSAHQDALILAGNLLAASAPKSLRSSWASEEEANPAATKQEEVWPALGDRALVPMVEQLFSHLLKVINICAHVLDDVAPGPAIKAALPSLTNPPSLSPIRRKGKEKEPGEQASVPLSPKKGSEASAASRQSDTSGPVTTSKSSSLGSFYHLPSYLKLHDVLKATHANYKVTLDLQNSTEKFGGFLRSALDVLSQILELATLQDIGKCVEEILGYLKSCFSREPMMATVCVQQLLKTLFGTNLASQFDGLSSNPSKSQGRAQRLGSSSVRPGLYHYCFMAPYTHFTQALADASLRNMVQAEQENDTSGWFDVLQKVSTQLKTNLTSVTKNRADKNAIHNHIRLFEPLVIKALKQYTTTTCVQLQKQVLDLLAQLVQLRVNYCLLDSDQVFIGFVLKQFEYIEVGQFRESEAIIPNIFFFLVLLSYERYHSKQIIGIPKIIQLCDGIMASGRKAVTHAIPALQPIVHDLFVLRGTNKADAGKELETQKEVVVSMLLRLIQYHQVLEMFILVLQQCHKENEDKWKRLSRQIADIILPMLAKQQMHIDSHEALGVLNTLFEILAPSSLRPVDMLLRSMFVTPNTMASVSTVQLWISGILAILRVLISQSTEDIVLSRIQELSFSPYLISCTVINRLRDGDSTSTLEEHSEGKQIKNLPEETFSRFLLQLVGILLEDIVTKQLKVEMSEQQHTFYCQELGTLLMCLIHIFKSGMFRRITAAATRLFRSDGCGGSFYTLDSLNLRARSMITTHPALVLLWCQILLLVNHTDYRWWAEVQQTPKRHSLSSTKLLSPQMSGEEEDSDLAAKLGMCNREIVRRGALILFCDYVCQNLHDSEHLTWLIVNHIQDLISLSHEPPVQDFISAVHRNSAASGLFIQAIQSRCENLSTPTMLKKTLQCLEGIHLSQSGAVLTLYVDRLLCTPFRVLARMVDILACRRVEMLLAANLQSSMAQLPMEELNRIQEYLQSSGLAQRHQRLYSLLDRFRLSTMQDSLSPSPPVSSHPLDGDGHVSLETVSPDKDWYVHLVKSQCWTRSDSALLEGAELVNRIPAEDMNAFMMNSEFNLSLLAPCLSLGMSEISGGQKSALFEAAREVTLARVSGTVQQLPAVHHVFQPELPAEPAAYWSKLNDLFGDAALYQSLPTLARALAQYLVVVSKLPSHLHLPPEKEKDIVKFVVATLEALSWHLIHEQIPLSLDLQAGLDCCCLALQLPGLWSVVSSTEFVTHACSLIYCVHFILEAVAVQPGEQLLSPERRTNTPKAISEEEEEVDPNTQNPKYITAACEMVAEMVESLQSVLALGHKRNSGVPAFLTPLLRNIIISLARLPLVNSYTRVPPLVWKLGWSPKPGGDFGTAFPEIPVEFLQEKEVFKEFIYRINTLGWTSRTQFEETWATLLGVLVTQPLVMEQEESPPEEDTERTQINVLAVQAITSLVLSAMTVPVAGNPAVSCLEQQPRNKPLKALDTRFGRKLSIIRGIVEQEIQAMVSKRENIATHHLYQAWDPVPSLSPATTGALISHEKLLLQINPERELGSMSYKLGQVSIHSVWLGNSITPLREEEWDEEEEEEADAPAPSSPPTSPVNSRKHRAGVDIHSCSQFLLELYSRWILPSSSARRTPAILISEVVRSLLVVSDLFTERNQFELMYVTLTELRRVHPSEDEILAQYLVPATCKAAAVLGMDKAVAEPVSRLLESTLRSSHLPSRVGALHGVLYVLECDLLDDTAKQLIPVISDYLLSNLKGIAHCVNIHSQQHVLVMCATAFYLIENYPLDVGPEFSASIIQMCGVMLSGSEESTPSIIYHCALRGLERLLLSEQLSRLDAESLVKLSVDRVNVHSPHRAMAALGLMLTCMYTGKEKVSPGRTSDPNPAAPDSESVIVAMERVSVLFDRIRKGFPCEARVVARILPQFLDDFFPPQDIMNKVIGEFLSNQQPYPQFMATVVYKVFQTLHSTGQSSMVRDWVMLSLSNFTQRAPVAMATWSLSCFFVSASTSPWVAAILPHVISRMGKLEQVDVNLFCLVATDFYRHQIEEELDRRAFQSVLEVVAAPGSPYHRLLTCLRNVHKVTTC
# UniProt Q96F46, 694-713: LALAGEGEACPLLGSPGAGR
# UniProt O75874, whole entry, looked up: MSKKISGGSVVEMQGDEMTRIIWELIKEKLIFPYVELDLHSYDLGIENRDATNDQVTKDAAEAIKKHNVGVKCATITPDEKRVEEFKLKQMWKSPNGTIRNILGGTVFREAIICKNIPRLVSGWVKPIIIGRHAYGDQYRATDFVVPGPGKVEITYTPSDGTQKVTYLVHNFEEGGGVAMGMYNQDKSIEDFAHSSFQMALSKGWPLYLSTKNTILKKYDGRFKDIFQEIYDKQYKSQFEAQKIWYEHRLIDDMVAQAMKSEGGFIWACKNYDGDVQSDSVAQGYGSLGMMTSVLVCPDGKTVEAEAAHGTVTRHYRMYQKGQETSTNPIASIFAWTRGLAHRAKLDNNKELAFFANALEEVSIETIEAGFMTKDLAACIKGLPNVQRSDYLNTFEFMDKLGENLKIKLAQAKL
# IARS1_(C350,C350,C357,C357), as listed by the source: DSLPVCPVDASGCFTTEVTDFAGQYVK
# The list shows a part of the results. The data scatter; read single values as rough.
# Assays:
# [1] = compound: ClCC(=O)N[C@@H]1CCCc2ccccc12; assay: log2 mean competition ratio of IA-DTB cysteine labelling (DMSO/compound) (log2 ratio); higher = stronger cysteine engagement by compound; conditions: treatment time: 4 h, cell line lysate: HEK293T
# Experimental: (§1)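 IA-DTB competitive cysteine chemoproteomics in HEK293T RIPA lysate. Lysates were treated with compound 29 or 30 at 50 or 200 µM for 4 h, then IA-DTB (500 µM, 1 h), trypsin-digested, NeutrAvidin-enriched and analysed by diaPASEF. Competition ratio = intensity DMSO / intensity compound (n=4 treated, n=64 DMSO); binding: mean log2 CR ≥ 1 and p ≤ 0.05 plus QC filters. Target is the cysteine site.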
# [2] = compound: ClCC(=O)N[C@H]1CCCc2ccccc12; assay: as above; conditions: treatment time: 4 h, cell line lysate: HEK293T
# Experimental: as §1
Target,log2 mean competition ratio ([1]; 50 µM),log2 mean competition ratio ([1]; 200 µM),log2 mean competition ratio ([2]; 50 µM),log2 mean competition ratio ([2]; 200 µM)
HOXD11 C225,-0.16,-0.106,-0.183,0.0713
INTS5 C5 (UniProt Q6P9B9),-0.224,0.196,0.239,-0.234
IFT140 C1129 (UniProt Q96RY7),-0.199,0.0943,-0.534,0.0769
HUWE1 C1401,-0.182,0.0912,-0.0209,0.0889
HUWE1 C1252,0.0414,0.17,0.458,0.219
IKBKG C54 (UniProt Q9Y6K9),0.19,-0.0674,0.0422,-0.0148
INTS1 C969 (UniProt Q8N201),-0.107,0.781,-0.0954,0.545
HUWE1 C3239,-0.0553,0.0227,0.042,0.0366
HPS6 C141 (UniProt Q86YV9),-0.229,-0.0572,-0.217,-0.1
INTS12 C379 (UniProt Q96CB8),-0.00294,0.00206,0.0257,0.0933
IPO13 C848 (UniProt O94829),-0.109,0.0229,0.107,0.203
INTS10 C7 (UniProt Q9NVR2),-0.0674,-0.0414,0.306,0.225
ILKAP C190 (UniProt Q9H0C8),0.263,0.0752,-0.0199,0.035
IDH3A C331 (UniProt P50213),0.0686,-0.259,0.035,-0.188
INCENP C163 (UniProt Q9NQS7),-0.243,0.0152,0.0272,-0.187
INTS9 C471 (UniProt Q9NV88),-0.253,0.112,-0.497,-0.13
IRF2BP2 C521 (UniProt Q7Z5L9),0.192,-0.189,-0.336,-0.247
HTT C1961 (UniProt P42858),0.112,0.15,-0.789,-0.177
HTATSF1 C512 (UniProt O43719),-0.17,0.142,-0.249,0.149
IGF2R C1282 (UniProt P11717),-0.0766,0.0229,-0.148,0.196
INTS1 C1833 (UniProt Q8N201),-0.0189,0.353,-0.447,0.277
INTS1 C1866 (UniProt Q8N201),-0.00242,0.272,0.201,0.244
ICA1L C124,,-0.00986,0.447,0.073

Target,log2 mean competition ratio ([1]; 50 µM),log2 mean competition ratio ([1]; 200 µM),log2 mean competition ratio ([2]; 50 µM),log2 mean competition ratio ([2]; 200 µM)
HOXD13 C40,0.359,0.104,-0.0645,-0.0328
IL13RA1 C282 (UniProt P78552),-0.0622,,-0.316,0.178
IP6K1 C48 (UniProt Q92551),-0.00514,0.154,-0.404,-0.0988
IL17RA C703 (UniProt Q96F46),-0.254,0.164,-0.0017,0.0256
HTT C278 (UniProt P42858),0.216,0.108,0.229,0.089
IPO5 C1057,0.262,0.354,0.362,0.122
IPO5 C266,0.497,-0.0259,0.246,-0.00618
IGF2BP3 C257 (UniProt O00425),-0.128,-0.0239,0.0885,0.0112
INTS11 C354 (UniProt Q5TA45),0.345,0.16,0.371,0.0883
IKBKB C464 (UniProt O14920),0.175,0.519,0.513,0.67
HROB C209,-0.083,0.157,0.326,0.345
"IARS1_(C350,C350,C357,C357)",0.469,-0.0432,0.904,0.0297
IGHMBP2 C395 (UniProt P38935),0.113,0.104,0.162,-0.0133
INF2 C1029 (UniProt Q27J81),0.0365,-0.177,-0.239,-0.253
IFT20 C37 (UniProt Q8IY31),-0.247,-0.0774,-0.0233,-0.0675
IP6K1 C349 (UniProt Q92551),0.0405,0.188,-0.335,0.587
INTS1 C1534 (UniProt Q8N201),-0.132,-0.31,0.129,-0.151
INTS10 C387 (UniProt Q9NVR2),-0.222,-0.0897,-0.0414,0.167
HTT C1524 (UniProt P42858),0.383,0.174,0.349,0.244
IDH1 C73 (UniProt O75874),-0.447,0.218,-0.443,-0.0325
IQCC C248,-0.313,0.135,-0.386,0.19
ID1 C17 (UniProt P41134),,0.104,-0.346,-0.166
ICE2 C492 (UniProt Q659A1),-0.134,0.477,-0.203,0.782

# For convenience, part of the list above.
Target,log2 mean competition ratio ([1]; 50 µM),log2 mean competition ratio ([1]; 200 µM),log2 mean competition ratio ([2]; 50 µM),log2 mean competition ratio ([2]; 200 µM)
HOXD11 C225,-0.16,-0.106,-0.183,0.0713
INTS5 C5 (UniProt Q6P9B9),-0.224,0.196,0.239,-0.234
IFT140 C1129 (UniProt Q96RY7),-0.199,0.0943,-0.534,0.0769
HUWE1 C1401,-0.182,0.0912,-0.0209,0.0889
HUWE1 C1252,0.0414,0.17,0.458,0.219
IKBKG C54 (UniProt Q9Y6K9),0.19,-0.0674,0.0422,-0.0148
INTS1 C969 (UniProt Q8N201),-0.107,0.781,-0.0954,0.545
HUWE1 C3239,-0.0553,0.0227,0.042,0.0366
HPS6 C141 (UniProt Q86YV9),-0.229,-0.0572,-0.217,-0.1
INTS12 C379 (UniProt Q96CB8),-0.00294,0.00206,0.0257,0.0933
IPO13 C848 (UniProt O94829),-0.109,0.0229,0.107,0.203
INTS10 C7 (UniProt Q9NVR2),-0.0674,-0.0414,0.306,0.225
